# Screen size: about 310,000 compounds; about 17,000 (5.5%) were called active. The inconclusive results got no clear call from the source; some entries with a clear call stand among them for comparison. The call rests on the fitted dose curve; in most records, active means well fitted inhibition curve with a large enough effect; inconclusive means small, poorly fitted or top-dose-only effect, or effect the other way; inactive means no such curve, though single readings can be large or run the other way. Where the call is inconclusive, the potency comes from a doubtful curve fit.
# Amino acid sequences for entries named in this document (tags omitted). A change or cut given only in a name is not applied to a line headed by its entry.
# UniProt P51450: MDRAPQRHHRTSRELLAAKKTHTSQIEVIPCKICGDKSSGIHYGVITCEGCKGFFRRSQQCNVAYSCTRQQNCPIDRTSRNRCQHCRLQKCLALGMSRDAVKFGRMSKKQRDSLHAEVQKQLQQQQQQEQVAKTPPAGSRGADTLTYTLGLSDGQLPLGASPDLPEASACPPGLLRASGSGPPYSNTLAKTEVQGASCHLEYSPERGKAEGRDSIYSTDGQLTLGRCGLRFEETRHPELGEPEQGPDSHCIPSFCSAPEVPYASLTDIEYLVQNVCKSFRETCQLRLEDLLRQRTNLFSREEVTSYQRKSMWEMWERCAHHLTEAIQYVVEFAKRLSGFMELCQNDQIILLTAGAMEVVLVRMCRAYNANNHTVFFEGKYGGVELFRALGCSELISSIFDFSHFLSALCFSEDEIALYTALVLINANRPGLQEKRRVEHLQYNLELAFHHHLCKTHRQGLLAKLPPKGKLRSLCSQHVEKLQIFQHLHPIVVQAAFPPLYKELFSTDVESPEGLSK
# Target: Nuclear receptor ROR-gamma (Mus musculus) (UniProt P51450)
# Experiment: qHTS for inhibitors of ROR gamma transcriptional activity; further: nearly all actives have a fitted effect of over 60% in size
# Conditions: Drosophila S2 Gal4-RORgamma UAS-luciferase reporter, 20 h; activity change, negative = inhibition: at 53.6 µM (top of the series)
# Description: NIH Molecular Libraries Probe Production Network [MLPCN] NIH Chemical Genomics Center [NCGC] MLPCN Grant: R03 DA026211-01 Assay Provider: Dan Littman, New York University Assay Overview: The retinoic acid-related orphan receptor (ROR) gamma is a transcription factor that has a central role in the differentiation of Th17 cells, a subset of T helper cells that secrete the inflammatory cytokines IL-17, IL-17F, and IL-22. Th17 cells have been implicated in graft versus host disease, autoimmune disease and asthma. ROR gamma is induced in naive T helper cells in the presence of TGF-beta combined with IL-6, IL-21, or IL-23, and thereafter directs the expression of the Th17 lineage cytokines. To study the mechanism of action of ROR gamma, an insect cell-based assay was screened. This Drosophila Schneider cell line was stably transfected with two vectors: a gene expressing a fusion of the Gal4 DNA binding domain and ROR gamma transactivation domain under the control of the metallothionine promoter and a Photinus luciferase reporter regulated by the Gal4 binding site enhancer, UAS. […] Small molecule inhibitors of ROR gamma activity are detected by a decrease in luciferase reporter activity.
# Assay Protocol Summary: For screening, 600 cells in 4 uL/well were dispensed into white solid 1536-well plates (Grenier) using a solenoid-based dispenser. Following transfer of 23 nL compound or DMSO vehicle by a pin tool, the plates were incubated 1 hr at ambient temperature, and 1 uL/well copper sulfate (700 uM final concentration) was added. The plates were centrifuged 15 s at 1000 RPM and incubated 20 hr at ambient temperature. After addition of 1.5 uL Photinus luciferase detection reagent, the plates were incubated 10 min at ambient temperature and then read by an ViewLux (Perkin Elmer) to detect luminescence. Keywords: NIH Roadmap, MLPCN, MLI, MLSMR, qHTS, NCGC, qHTS, nuclear hormone receptor, retinoic acid-related orphan receptor, ROR gamma
# On the % scale 0 is the no-effect control and ±100 the full control effect; potency means the concentration at half of the fitted maximal effect.
Structure (SMILES),Potency,"activity change, negative = inhibition"
CCOC(=O)NC(=S)Nc1ccc(OC)cc1,"inconclusive: 35.5 µM [inhibitor, single point]",
CN(C)/C=N/C(=S)Nc1ccccc1,active: 15.8 µM,
COc1ccc(CNC(=O)CCN2C(=S)NC(C)(C)CC2C)cc1 (stereo not drawn),"inconclusive: 22.4 µM [inhibitor, single point]",
COC(CNC(=O)c1cccc(-n2c(=S)[nH]c3cc(Cl)ccc3c2=O)c1)OC,inactive,
CCOc1ccc2[nH]c(=O)c(CN(CCc3ccccc3)C(=O)N3CCCC3)cc2c1,inactive,
CC/C(=N\O)c1c(O)c2c(n(-c3ccccc3)c1=O)CCCC2,"inconclusive: 35.5 µM [inhibitor, single point]",
NC(=O)c1sc2nc3c(c(-c4cccs4)c2c1N)CCCCC3,inactive,
CC1Oc2ccccc2OC1C(=O)Nc1nccs1 (stereo not drawn),"inconclusive: 35.5 µM [inhibitor, single point]",
CCC(=O)NC(=S)Nc1cccc(-c2nc3ncccc3o2)c1,active: 12.6 µM,
Cc1ccc2nsnc2c1S(=O)(=O)N1CCOCC1,"inconclusive: 35.5 µM [inhibitor, single point]",
CCc1ccc(NC2=CC(=O)CC(c3ccco3)C2)cc1 (stereo not drawn),"inconclusive: 11.2 µM [activator, partial curve]",
Cc1ccccc1C(=O)Nc1ccccc1N1CCN(C(=O)c2ccccc2)CC1,inactive,
CCN1/C(=C2\C(=O)N(C)C(=S)N2C)C=Cc2cc(C)ccc21,inactive,
C/C(=N\NC(=S)Nc1cc(S(=O)(=O)N2CCOCC2)ccc1Cl)c1ccccc1F,active: 1.12 µM,
CC(=O)c1cccc(NC(=O)CSc2ccc(-c3ccccn3)nn2)c1,"inconclusive: 0.316 µM [activator, partial curve, poor fit]",
O=C(c1cccc(C(F)(F)F)c1)N1CCOC12CCN(c1ncc(C(F)(F)F)cc1Cl)CC2,"inconclusive: 35.5 µM [activator, single point]",
Cc1cccc(/C(N)=N/OC(=O)c2ccc3c(c2)OCO3)c1,active: 10 µM,
CCOc1ccccc1N1C(=O)CC(Sc2n[nH]c(-c3ccccc3)n2)C1=O (stereo not drawn),active: 3.55 µM,
COc1ccc(CN(CCC(c2ccccc2)c2ccc(OC(C)C)cc2)C(=O)CCl)cc1OC (stereo not drawn),active: 12.6 µM,
CS(=O)(=O)N1CCC(Oc2ccccc2C(=O)N2CCN(CC3CC3)CC2)CC1,inactive,
Cc1ccc(C(C)(C)C)cc1S(=O)(=O)Nc1nc2ccccc2nc1Cl,"inconclusive: 35.5 µM [activator, single point]",
Cn1c2ccc(F)cc2c2nnc(SCC(=O)Nc3cccc(O)c3)nc21,"inconclusive: 7.08 µM [activator, full curve, poor fit]",
Cc1nc(N2CCN(C(=O)c3ccc(Cl)cc3)CC2)c(C#N)c2c1COC(C)(C)C2,"inconclusive: 12.6 µM [activator, partial curve]",
CCSc1nsc(NC(=O)Nc2ccccc2OC)n1,"inconclusive: 17.8 µM [activator, partial curve]",
S=c1[nH]nc(-c2ccc(Cl)cc2)n1/N=C/c1cccs1,active: 3.55 µM,

Structure (SMILES),Potency,"activity change, negative = inhibition"
CC1CCN(Cc2ccc(NC(=O)C3CCN(c4nnc(-n5cccc5)s4)CC3)cc2)CC1,inactive,
CCOc1cc(NC(=S)NCCOC)c(OCC)cc1NC(=O)c1ccco1,active: 12.6 µM,
Clc1ccccc1Cc1noc(CN2CCCCC2c2ccccn2)n1 (stereo not drawn),"inconclusive: 3.55 µM [inhibitor, partial curve, poor fit]",
Cc1oc2nc(SCC(=O)Nc3ccc(S(N)(=O)=O)cc3)nc(NC(=O)c3ccccc3)c2c1C,"inconclusive: 35.5 µM [inhibitor, single point]",
Cc1c(Br)c([N+](=O)[O-])nn1C(C)C(=O)NCc1ccco1 (stereo not drawn),"inconclusive: 31.6 µM [activator, single point]",
COc1ccc(-c2c(-c3ccccc3OC)sc3ccccc23)cc1OC,inactive,
COc1ccc(CNC(=O)COC(=O)c2n[nH]c3ccccc23)cc1OC,"inconclusive: 17.8 µM [activator, partial curve]",
O=S(=O)(N/N=C\c1cn(-c2ccccc2)nc1-c1ccccc1)c1ccccc1,"inconclusive: 15.8 µM [activator, partial curve]",
O=C(c1ccc2[nH]c3c(c2c1)CCCC3)N1CCN(c2ccc(F)cc2)CC1,"inconclusive: 12.6 µM [activator, partial curve]",
Cc1ccc(S(=O)(=O)Nc2nc3ccccc3nc2N2CCc3ccccc3C2)cc1,"inconclusive: 2.24 µM [activator, full curve]",
CC(=O)Nc1ccc(OCC(O)Cn2c(C)nc3ccccc32)cc1 (stereo not drawn),"inconclusive: 2.24 µM [activator, full curve]",
Cc1ccc(C)c(NC(=O)CCN2C(=O)c3ccccc3C2=O)c1,inactive,
Cc1cc(C)c(NC2=CC(=O)CC(C)(C)C2)c(C#N)c1,,inactive: -16.6% [at 10 µM]
Cc1ccc(-c2cc(C(=O)Nc3ccc(S(=O)(=O)Nc4ncccn4)cc3)c3ccccc3n2)cc1,"inconclusive: 31.6 µM [activator, single point]",
Cc1ccc(O)c(N)c1,"inconclusive: 22.4 µM [inhibitor, single point]",
O=C(NC(CC(=O)N1CCN(c2ccc([N+](=O)[O-])cc2)CC1)c1ccccc1)c1ccccc1Cl (stereo not drawn),"inconclusive: 7.94 µM [activator, partial curve]",
O=C(NCC1(c2ccccc2)CCCC1)c1ccc(Br)o1,inactive,
O=C(NCc1ccccn1)c1ccc(Cl)c(S(=O)(=O)Nc2ccccc2C(=O)NCc2ccccn2)c1,"inconclusive: 22.4 µM [inhibitor, partial curve, poor fit]",
COC(=O)Cc1ccc(NC(=S)NCCSc2ccc(C)cc2)cc1,"inconclusive: 20 µM [inhibitor, single point]",
Cc1c(C(=O)Nc2ccc(F)cc2)nnn1-c1cccc(C(F)(F)F)c1,"inconclusive: 31.6 µM [inhibitor, single point]",
Cc1ccc(N=Cc2cc3c(cc2O)OC(N)=C(C#N)C3c2ccccc2)cc1 (stereo not drawn),"inconclusive: 35.5 µM [inhibitor, single point]",
COc1cccc(/C=N/Nc2nc3ccccc3n3cnnc23)c1O,"inconclusive: 35.5 µM [inhibitor, single point]",
COc1ccccc1NC(=S)N(Cc1cccs1)C1CCCC1,"inconclusive: 20 µM [inhibitor, single point]",
CC1CCCCC1NC(=O)CCCn1c(=S)[nH]c2ccsc2c1=O (stereo not drawn),active: 17.8 µM,
C=CCc1cccc(/C=N/NC(=O)C(C)Nc2ccc(C)cc2)c1O (stereo not drawn),active: 0.562 µM,

# Individual results from the entries so far.
# Value of Cc1cc(C)c(NC2=CC(=O)CC(C)(C)C2)c(C#N)c1 under activity change, negative = inhibition: inactive: -16.6% [at 10 µM]
# Value of CCOc1cc(NC(=S)NCCOC)c(OCC)cc1NC(=O)c1ccco1 under Potency: active: 12.6 µM
# Value of COC(=O)Cc1ccc(NC(=S)NCCSc2ccc(C)cc2)cc1 under Potency: inconclusive: 20 µM [inhibitor, single point]
# Value of COc1ccccc1NC(=S)N(Cc1cccs1)C1CCCC1 under Potency: inconclusive: 20 µM [inhibitor, single point]

# Continued:

Structure (SMILES),Potency,"activity change, negative = inhibition"
Cc1ccccc1C(=O)NNC1=NCCC1,active: 12.6 µM,
CN(C)S(=O)(=O)c1cccc(NC(=O)c2ccncc2)c1,"inconclusive: 22.4 µM [activator, single point]",
CCCC(=O)NC(c1cccs1)c1cc([N+](=O)[O-])c2cccnc2c1O (stereo not drawn),active: 5.62 µM,
COc1ccc(Cn2nnnc2CN2CCC(c3nc4ccccc4s3)CC2)cc1,inactive,
COc1ccc(/C=N/NC(=O)c2nc(-c3ccccc3)cc(-c3ccccc3)n2)cc1OC,inactive,
COc1ccc(Sc2cc(C(F)(F)F)nc(-c3ccccn3)n2)cc1,active: 3.98 µM,
CN(Cc1ccccc1)c1nc(-c2cccc([N+](=O)[O-])c2)nc2ccccc12,inactive,
COc1ccccc1-n1c(=O)c2c3c(sc2n2c(=S)[nH]nc12)CCC3,active: 12.6 µM,
CCCSc1nc2c(c(=O)n(C)c(=O)n2C)n1Cc1ccc(C)cc1,"inconclusive: 12.6 µM [activator, single point]",
O=C(CCN1C(=O)[C@@H]2Cc3ccccc3CN2C1=O)NCc1ccccc1,inactive,
COc1ccc(NC(=O)C(C)N2c3cccc4cccc(c34)S2(=O)=O)cc1OC (stereo not drawn),"inconclusive: 0.158 µM [activator, full curve]",
COc1ccc(-c2nc3ccccc3o2)cc1NC(=O)CSc1ccc(Cl)cc1,active: 1.41 µM,
FC(F)(F)c1ccnc(Oc2ccc(C3=NCCS3)cc2)c1,"inconclusive: 3.55 µM [activator, single point]",
O=C(NN1C(=O)c2ccccc2NC1c1ccoc1)c1ccc([N+](=O)[O-])cc1 (stereo not drawn),"inconclusive: 25.1 µM [activator, partial curve]",
Cc1cc(-c2nn(C)c(=O)c3ccccc23)cc(C)c1O,"inconclusive: 0.178 µM [inhibitor, full curve, poor fit]",
COc1cc(-c2cc(C(=O)NCc3ccco3)c3ccccc3n2)cc(OC)c1OC,inactive,
CC1(C)CC(=O)C(=Cc2cn(CCC#N)nc2-c2ccc(F)cc2)C(=O)C1,inactive,
CCN(CC)CCN(C(=O)c1ccc2ccccc2c1)c1nc2ccc(F)cc2s1,inactive,
C=CCn1c(SCC(=O)N2CCc3ccccc3C2)nc2sc(C)c(C)c2c1=O,"inconclusive: 11.2 µM [activator, partial curve]",
COc1ccc(C(=O)Nc2ccc(N3CCN(Cc4ccccc4)CC3)cc2)cc1,inactive,
Nc1ccc(-c2nnc(-c3ccc(N)cc3)o2)cc1,"inconclusive: 5.62 µM [inhibitor, partial curve, poor fit]",
CC(C)C(=O)N1CCC(CN=CC2=C(O)CC(C)(C)CC2=O)CC1,"inconclusive: 0.112 µM [inhibitor, single point]",
O=c1c2ccccc2nc(/C=C/c2ccc(Cl)cc2)n1CCO,"inconclusive: 12.6 µM [activator, single point]",
